Library screening results

Sequences of proteins named here, by UniProt entry; tags and fusion partners are left off.
UniProt E9BF75, entry or part of it: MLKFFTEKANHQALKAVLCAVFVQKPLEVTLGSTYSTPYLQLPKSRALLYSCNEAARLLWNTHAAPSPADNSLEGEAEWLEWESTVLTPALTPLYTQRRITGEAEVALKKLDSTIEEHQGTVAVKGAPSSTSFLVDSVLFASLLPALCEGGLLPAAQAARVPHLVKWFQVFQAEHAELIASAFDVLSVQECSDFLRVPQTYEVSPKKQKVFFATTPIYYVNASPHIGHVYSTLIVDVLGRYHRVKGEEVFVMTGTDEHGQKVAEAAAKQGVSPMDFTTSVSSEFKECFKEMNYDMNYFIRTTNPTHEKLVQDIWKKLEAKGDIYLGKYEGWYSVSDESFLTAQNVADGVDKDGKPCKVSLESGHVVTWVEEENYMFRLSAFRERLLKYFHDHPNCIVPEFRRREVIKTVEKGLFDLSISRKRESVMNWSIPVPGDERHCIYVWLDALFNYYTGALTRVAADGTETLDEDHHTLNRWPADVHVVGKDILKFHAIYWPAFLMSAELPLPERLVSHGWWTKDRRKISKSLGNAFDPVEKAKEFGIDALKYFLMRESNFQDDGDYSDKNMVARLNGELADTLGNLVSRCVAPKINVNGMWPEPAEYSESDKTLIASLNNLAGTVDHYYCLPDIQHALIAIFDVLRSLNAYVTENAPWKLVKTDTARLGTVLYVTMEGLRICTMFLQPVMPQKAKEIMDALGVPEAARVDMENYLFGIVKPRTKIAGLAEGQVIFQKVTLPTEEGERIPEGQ

Data taken from ChEMBL document CHEMBL3988442, “University of Dundee, Small-Polar-MMV Screening Library” (2021).

A: 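Primary screen of methionyl-tRNA synthetase; the read-out is not stated. Target: Methionyl-tRNA synthetase (putative), Leishmania donovani (UniProt E9BF75). The test concentration is not given. Values are per cent inhibition. Size under these conditions: about 68,000 compounds, about 24 of them at 50% or above in at least one test.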
B: 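Assay on Mycobacterium tuberculosis, filed only as a heat shock assay from Cornell; the read-out is not stated. The concentration is filed as 10 mM, unlikely as a test dose, so the dose is not known. The record gives no direction; compounds that gave an IC50 in retests scored well above the rest, so higher reads as stronger inhibition. About 69,000 compounds were tested under these conditions; 1.4% (about 930) showed 50% or more at least once.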

Results are percentages, as filed. How 0% and 100% were set is not recorded. Most values in the screen are low, and negative values occur. This is an unselected part of the compounds tested.

{"compound": "Cc1noc(C2CCCN(C(=O)c3cc(-c4ccccc4)on3)C2)n1", "stereo": "centres undefined", "A": 9.91, "B": 23.56}
{"compound": "O=C(Cn1ccnc1)N1C[C@@H]2CC[C@H](Oc3ccccc3F)[C@@H]2C1", "A": 6.25}
{"compound": "CC(=O)N[C@H]1CCO[C@@H](c2cccc(NC(=O)C(C)(C)C)c2)C1", "A": 12.79, "B": 8.594}
{"compound": "CC[C@H]1CN2CC[C@H]1C[C@@H]2CNCc1ccc2c(c1)OCO2", "A": 5.495}
{"compound": "Cc1cc(NCCCNc2cccnc2)n2nc(C)c(C)c2n1", "A": 6.266, "B": 90.05}
{"compound": "CC[C@H](C)[C@H](N)C(=O)N1CC(=O)c2sc(NC3CCCCC3)nc2C1", "A": 8.495, "B": 34.15}
{"compound": "CS(=O)(=O)N1CCC(Oc2ccc(C(=O)NC3CCOC3)cc2Cl)CC1", "stereo": "centres undefined", "A": 16.1, "B": 7.533}
{"compound": "O=C(O)C(F)(F)F.O=C(O)C(F)(F)F.c1cncc(-c2nnn3c2COCC(CNC2CCOCC2)C3)c1", "stereo": "centres undefined", "B": 3.006}
{"compound": "CN(C)Cc1ccc(C2CCCCN2C(=O)c2cc(C3CC3)n[nH]2)cc1", "stereo": "centres undefined", "A": 10.37, "B": 1.661}
{"compound": "Cn1ccc(C(=O)NCCOc2ccc3c(c2)OCO3)cc1=O", "A": 9.044, "B": 4.152}
{"compound": "CCc1nc(Cn2cncc(Br)c2=O)no1", "A": 4.381, "B": 1.768}
{"compound": "CNC(=O)C1(c2cnccn2)CCCN1C(=O)c1ccccn1", "stereo": "centres undefined", "A": 0.5208, "B": -26.85}
{"compound": "Cc1nc(CN2C[C@@H]3CN(C(=O)NC(C)C)C[C@@H]3C2=O)cs1", "A": 16.83}
{"compound": "COC(=O)Cn1cccc(S(=O)(=O)N2CCC(C)CC2)c1=O", "A": 1.245, "B": -21.76}
{"compound": "Cl.Cl.Cl.O[C@@H]1C[C@@](CNCc2ccccn2)(COc2cccnc2)C[C@@H]1O", "B": -45.63}
{"compound": "Cc1cccc(-c2noc(CN3CC(n4cccn4)C3)n2)c1", "A": 22.51, "B": -9.44}
{"compound": "Cc1cnn(CC2CCCCN2Cc2c(C)noc2C)c1", "stereo": "centres undefined", "A": 15.26, "B": 5.737}
{"compound": "CCn1c(CC2CCNCC2)nn(Cc2ccc(C(=O)NC)o2)c1=O", "A": 10.15, "B": 12.07}
{"compound": "CN(CCC(=O)NC1CC1)Cc1ccc(Cl)s1", "A": 13.13, "B": -7.157}
{"compound": "CCN1CCN(C[C@@H]2CN(c3ncccc3F)C[C@@H]2CO)CC1", "A": -0.9677, "B": -22.69}
{"compound": "CCn1cc(NC(=O)C(C)n2ncc(Cl)c2C)c(C(=O)NCC(C)C)n1", "stereo": "centres undefined", "A": 8.355, "B": -12.59}
{"compound": "O=C(C1CCOCC1)N1CCO[C@@H]2[C@@H](OCc3ccncc3)CC[C@@H]21", "A": 12.39}
{"compound": "O=C(O)C(F)(F)F.O=C(O)C(F)(F)F.[H][C@@]12CCN(Cc3cccc(C)n3)[C@@]1([H])CCN2Cc1cccs1", "B": -14.73}
{"compound": "O=C(CCNS(=O)(=O)c1ccc(F)cc1)NCc1ccoc1", "A": 18.04, "B": -3.712}
{"compound": "COc1cccc(CN2C[C@H]3CC[C@H]2C3)c1OCCN1CCOCC1", "A": 19.64}
{"compound": "CN1CCN(c2ccccc2CNC(=O)Cc2ccccc2F)CC1", "A": 14.08, "B": -14.66}